Reference: publication PMC10638126

Molecular target: T1, ABA RESPONSIVE ELEMENT BINDING FACTOR 1 (OsABF1) (rice (Oryza sativa)) (UniProt Q0JHF1)
T1 sequence: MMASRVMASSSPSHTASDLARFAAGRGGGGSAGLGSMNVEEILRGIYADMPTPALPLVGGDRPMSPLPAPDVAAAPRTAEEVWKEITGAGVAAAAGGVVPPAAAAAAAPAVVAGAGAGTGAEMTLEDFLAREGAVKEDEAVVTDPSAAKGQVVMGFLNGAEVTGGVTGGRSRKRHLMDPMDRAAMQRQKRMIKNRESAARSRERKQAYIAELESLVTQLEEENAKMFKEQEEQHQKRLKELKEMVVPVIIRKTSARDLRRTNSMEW
Assay: split reporter; BiFC; pSPYNE (R) and pSPYCE (MR) constructs co-transformed into Arabidopsis mesophyll protoplasts, incubated overnight, confocal microscopy

binding: binds
Substance: Hd3a BINDING REPRESSOR FACTOR 1 (HBF1) (rice (Oryza sativa))

Results are given in words; binding and its absence hold for the method and conditions named. Binding seen in cells or lysates may run through a third protein. A result given as binding can be weak or reduced; the word gives no strength.
